Measured values reported in the supplement of paper PMC10849652.
The other results are listed elsewhere or left out.

Amino acid sequences for entries named in this document (tags omitted). A change or cut given only in a name is not applied to a line headed by its entry.
UniProt Q6DD87: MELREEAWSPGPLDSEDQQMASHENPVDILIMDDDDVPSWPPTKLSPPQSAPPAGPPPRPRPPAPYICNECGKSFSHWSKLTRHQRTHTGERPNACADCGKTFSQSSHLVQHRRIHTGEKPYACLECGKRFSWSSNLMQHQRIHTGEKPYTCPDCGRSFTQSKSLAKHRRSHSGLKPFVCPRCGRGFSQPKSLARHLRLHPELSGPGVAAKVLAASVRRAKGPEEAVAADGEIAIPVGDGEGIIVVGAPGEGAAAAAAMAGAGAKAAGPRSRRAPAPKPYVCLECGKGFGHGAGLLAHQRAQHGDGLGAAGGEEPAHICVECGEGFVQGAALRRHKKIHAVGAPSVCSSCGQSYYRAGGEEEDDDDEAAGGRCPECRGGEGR
UniProt Q2TB10: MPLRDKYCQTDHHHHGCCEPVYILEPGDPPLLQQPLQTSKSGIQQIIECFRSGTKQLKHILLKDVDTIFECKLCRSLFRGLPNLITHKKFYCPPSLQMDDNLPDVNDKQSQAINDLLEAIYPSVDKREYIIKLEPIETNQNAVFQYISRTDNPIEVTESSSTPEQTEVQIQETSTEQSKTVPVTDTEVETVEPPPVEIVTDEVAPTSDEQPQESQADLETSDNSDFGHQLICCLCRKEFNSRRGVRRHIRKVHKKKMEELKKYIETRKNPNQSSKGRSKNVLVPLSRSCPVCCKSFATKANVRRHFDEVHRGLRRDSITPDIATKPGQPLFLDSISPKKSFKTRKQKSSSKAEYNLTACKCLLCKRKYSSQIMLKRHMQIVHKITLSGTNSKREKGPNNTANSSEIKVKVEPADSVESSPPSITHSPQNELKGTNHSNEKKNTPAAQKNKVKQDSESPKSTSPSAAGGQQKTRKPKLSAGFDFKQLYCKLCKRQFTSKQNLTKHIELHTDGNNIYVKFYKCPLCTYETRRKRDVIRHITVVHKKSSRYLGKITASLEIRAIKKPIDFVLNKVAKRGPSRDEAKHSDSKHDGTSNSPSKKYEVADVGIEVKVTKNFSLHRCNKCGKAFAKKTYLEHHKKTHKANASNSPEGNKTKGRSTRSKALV
UniProt Q96NB3: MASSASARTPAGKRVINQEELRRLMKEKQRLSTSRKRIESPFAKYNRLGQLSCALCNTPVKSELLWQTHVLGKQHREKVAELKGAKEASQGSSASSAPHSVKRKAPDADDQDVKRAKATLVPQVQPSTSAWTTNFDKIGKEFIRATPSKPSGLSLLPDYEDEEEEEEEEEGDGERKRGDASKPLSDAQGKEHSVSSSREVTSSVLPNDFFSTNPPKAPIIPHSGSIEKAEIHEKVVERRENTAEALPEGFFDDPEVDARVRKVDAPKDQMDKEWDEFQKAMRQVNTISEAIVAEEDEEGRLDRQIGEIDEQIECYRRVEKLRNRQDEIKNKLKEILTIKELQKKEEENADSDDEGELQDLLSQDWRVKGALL
UniProt Q6ZMS4: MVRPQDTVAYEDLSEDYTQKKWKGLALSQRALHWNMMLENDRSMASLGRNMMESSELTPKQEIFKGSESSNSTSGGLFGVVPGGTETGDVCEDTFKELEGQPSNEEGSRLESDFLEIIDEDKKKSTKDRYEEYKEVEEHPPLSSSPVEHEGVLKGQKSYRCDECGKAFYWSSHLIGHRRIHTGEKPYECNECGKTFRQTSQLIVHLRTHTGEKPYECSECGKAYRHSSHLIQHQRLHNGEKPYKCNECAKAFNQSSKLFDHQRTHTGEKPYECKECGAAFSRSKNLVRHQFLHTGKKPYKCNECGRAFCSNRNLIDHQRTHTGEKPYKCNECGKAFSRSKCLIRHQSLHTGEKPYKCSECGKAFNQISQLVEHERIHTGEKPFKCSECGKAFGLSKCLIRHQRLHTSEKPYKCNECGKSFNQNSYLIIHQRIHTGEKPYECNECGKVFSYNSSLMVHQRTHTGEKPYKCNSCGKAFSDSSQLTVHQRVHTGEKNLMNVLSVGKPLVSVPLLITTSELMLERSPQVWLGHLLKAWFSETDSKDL
UniProt O43257, whole entry, looked up: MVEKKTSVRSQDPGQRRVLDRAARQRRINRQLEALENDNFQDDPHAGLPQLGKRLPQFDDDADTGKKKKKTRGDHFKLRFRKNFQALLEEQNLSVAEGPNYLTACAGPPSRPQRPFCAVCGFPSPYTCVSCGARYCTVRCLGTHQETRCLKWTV
UniProt Q9UHR6: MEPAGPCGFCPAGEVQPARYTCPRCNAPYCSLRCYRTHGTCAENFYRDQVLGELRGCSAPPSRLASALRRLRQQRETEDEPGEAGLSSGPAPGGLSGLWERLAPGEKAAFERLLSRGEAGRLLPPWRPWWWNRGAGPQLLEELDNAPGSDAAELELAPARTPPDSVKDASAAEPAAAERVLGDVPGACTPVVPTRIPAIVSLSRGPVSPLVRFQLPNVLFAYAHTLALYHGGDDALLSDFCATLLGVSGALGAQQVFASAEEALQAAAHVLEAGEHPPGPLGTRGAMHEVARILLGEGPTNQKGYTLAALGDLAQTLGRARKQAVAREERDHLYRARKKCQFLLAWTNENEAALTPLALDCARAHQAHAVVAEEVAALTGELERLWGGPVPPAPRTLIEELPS
UniProt Q15649: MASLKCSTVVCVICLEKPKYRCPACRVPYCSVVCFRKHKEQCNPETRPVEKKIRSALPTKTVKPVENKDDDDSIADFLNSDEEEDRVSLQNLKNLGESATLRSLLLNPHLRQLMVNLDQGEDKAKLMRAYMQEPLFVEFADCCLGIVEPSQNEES
UniProt Q9P1U0, whole entry, looked up: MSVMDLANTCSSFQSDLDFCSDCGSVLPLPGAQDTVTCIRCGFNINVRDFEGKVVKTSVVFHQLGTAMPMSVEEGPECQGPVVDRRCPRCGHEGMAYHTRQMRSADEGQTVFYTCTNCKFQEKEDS
UniProt O60232: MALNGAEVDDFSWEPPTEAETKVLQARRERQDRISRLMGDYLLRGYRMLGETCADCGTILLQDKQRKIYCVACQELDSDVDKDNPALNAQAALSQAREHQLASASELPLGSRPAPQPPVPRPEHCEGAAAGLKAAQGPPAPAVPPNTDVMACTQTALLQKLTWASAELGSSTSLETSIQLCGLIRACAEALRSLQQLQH
UniProt Q8ND25: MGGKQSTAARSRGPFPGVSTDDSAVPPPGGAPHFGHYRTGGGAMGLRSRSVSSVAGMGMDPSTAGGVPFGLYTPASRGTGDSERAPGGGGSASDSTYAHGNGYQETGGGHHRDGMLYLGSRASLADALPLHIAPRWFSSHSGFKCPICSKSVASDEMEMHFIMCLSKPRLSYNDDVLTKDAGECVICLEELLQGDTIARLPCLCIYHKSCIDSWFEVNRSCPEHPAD
UniProt Q8NHG8: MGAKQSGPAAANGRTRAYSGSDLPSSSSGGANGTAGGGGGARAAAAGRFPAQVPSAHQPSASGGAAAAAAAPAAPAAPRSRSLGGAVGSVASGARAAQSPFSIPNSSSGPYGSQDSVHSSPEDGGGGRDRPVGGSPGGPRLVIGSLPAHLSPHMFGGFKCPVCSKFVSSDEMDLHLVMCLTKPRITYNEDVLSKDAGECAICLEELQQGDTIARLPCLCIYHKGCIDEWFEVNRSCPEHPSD
UniProt O75312: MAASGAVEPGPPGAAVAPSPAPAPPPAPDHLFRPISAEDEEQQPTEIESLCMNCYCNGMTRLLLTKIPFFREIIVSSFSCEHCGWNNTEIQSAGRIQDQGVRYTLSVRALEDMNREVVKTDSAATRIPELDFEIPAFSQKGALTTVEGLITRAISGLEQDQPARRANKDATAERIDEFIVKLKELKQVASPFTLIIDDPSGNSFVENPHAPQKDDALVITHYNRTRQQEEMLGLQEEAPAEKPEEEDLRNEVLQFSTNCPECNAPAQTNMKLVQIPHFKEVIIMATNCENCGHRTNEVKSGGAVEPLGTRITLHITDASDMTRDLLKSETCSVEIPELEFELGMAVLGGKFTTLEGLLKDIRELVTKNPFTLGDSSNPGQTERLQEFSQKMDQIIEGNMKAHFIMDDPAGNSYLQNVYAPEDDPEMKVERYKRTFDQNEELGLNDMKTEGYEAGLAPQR
UniProt O95218: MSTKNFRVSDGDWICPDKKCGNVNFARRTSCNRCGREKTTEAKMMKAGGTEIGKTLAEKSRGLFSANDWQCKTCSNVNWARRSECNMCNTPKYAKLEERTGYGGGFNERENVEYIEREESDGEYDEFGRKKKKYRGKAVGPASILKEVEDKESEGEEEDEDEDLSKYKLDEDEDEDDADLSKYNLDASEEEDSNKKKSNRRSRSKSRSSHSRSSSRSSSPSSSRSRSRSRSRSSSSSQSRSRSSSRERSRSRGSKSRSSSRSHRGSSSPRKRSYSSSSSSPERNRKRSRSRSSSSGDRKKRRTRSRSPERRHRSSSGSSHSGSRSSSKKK
UniProt O43264: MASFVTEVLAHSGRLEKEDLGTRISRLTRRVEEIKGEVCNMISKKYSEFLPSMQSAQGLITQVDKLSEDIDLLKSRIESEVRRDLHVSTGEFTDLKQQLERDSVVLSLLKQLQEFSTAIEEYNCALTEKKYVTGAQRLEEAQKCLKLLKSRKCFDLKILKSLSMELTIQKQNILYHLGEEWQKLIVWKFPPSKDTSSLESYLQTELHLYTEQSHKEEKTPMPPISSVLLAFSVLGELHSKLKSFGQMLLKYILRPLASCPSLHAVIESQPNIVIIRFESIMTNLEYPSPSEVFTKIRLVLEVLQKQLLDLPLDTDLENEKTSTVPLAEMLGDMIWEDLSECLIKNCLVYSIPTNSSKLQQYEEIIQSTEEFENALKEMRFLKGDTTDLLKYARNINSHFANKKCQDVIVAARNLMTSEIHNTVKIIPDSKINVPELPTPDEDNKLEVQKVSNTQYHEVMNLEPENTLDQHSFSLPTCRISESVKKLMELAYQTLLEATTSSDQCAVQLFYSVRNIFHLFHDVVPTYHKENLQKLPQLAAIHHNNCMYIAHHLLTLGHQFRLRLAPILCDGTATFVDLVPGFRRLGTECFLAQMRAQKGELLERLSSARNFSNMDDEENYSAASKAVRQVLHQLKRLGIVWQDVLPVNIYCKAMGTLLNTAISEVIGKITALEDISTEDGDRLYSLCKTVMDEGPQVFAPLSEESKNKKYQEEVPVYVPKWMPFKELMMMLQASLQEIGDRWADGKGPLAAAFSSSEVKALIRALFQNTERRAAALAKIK
UniProt Q9NWK9: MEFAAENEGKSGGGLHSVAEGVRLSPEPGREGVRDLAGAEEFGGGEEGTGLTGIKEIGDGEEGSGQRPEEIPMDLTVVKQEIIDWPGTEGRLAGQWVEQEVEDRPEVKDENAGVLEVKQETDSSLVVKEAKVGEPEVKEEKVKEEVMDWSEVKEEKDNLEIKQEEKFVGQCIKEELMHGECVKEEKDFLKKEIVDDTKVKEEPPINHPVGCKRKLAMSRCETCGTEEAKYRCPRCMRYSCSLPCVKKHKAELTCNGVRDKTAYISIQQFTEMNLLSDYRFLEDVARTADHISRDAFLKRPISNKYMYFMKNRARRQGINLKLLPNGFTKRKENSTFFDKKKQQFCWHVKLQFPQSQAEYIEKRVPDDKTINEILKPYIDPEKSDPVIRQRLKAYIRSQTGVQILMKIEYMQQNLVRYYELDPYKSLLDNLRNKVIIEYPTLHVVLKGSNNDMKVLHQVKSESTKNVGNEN
UniProt Q16670: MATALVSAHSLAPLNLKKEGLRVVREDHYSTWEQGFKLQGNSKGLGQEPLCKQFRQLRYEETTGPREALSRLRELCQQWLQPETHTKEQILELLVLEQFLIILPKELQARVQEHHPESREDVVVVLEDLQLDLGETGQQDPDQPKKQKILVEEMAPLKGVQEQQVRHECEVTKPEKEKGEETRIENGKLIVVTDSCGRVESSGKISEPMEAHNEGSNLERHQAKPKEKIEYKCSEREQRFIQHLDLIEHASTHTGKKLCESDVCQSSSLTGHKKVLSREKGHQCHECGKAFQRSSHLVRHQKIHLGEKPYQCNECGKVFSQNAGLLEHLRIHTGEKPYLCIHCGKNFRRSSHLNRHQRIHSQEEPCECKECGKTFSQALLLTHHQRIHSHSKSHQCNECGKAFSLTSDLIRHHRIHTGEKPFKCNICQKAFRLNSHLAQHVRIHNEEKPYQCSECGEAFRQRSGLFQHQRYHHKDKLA
UniProt Q19AV6: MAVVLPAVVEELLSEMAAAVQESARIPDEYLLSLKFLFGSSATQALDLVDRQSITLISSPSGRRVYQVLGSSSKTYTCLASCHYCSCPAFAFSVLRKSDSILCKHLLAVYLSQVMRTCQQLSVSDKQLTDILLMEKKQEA
UniProt Q9Y5A6: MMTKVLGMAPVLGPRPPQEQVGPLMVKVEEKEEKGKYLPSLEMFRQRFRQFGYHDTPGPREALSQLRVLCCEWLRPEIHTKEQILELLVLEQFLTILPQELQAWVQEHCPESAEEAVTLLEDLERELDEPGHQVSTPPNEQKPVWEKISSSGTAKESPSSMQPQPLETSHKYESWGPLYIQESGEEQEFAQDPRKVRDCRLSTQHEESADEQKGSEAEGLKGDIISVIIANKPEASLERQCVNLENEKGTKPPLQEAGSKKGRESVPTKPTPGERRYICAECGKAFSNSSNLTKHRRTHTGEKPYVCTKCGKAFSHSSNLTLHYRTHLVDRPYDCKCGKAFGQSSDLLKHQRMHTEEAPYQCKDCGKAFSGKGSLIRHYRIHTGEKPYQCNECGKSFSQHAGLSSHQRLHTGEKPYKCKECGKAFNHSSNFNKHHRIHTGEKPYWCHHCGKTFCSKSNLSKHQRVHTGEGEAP

Legend:
Assay in all cases: log2 fold change, soluble protein after heating vs DMSO (PISA); higher = thermal stabilisation; K562 cells, 10 uM, 30 min; active = over 0.2 and 3.5 SD of the protein, either way, in both replicates (recomputed)
[1] = target: ZNF787 (UniProt Q6DD87)
Summary of the method: (§1)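 Quantification of soluble protein used TMTpro 16plex LC-MS/MS, with channel sums equalised. Samples were the supernatant after 21,000xg for 90 min of pooled aliquots from K562 cells (2×10^6 cells/mL) treated with 10 μM compound for 30 min, heated for 3 min over 48°C-58°C, and extracted in PBS with 0.5% NP-40 at 4°C. Values, from duplicates, describe thermal stability against control samples on a log2 fold-change scale.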

[2] = target: ZNF800 (UniProt Q2TB10)
Summary of the method: as §1

[3] = target: ZNF830 (UniProt Q96NB3)
Summary of the method: as §1

[4] = target: ZNF852 (UniProt Q6ZMS4)
Summary of the method: as §1

[5] = target: ZNHIT1 (UniProt O43257)
Summary of the method: as §1

[6] = target: ZNHIT2 (UniProt Q9UHR6)
Summary of the method: as §1

[7] = target: ZNHIT3 (UniProt Q15649)
Summary of the method: as §1

[8] = target: ZNRD1 (UniProt Q9P1U0)
Summary of the method: as §1

[9] = target: ZNRD2 (UniProt G3V1B8)
Summary of the method: as §1

[10] = target: ZNRD2 (UniProt O60232)
Summary of the method: as §1

[11] = target: ZNRF1 isoform 2 (UniProt Q8ND25)
Summary of the method: as §1

[12] = target: ZNRF2 (UniProt Q8NHG8)
Summary of the method: as §1

[13] = target: ZPR1 (UniProt O75312)
Summary of the method: as §1

[14] = target: ZRANB2 (UniProt O95218)
Summary of the method: as §1

[15] = target: ZW10 (UniProt O43264)
Summary of the method: as §1

[16] = target: ZNHIT6 (UniProt Q9NWK9)
Summary of the method: as §1

[17] = target: ZSCAN26 (UniProt Q16670)
Summary of the method: as §1

[18] = target: ZSWIM7 (UniProt Q19AV6)
Summary of the method: as §1

[19] = target: ZSCAN21 (UniProt Q9Y5A6)
Summary of the method: as §1

Measured: log2 fold change

COc1cc(Nc2ncc3c(n2)-c2ccc(Cl)cc2C(c2c(F)cccc2OC)=NC3)ccc1C(=O)O [alisertib]
inactive: [1] -0.02 | [2] -0.03 | [3] 0.027 | [4] -0.141 | [5] 0.374 | [6] -0.039 | [7] 0.008 | [8] -0.14 | [9] -0.323 | [10] -0.107 | [11] 0.069 | [12] 0.157 | [13] -0.02 | [14] -0.058 | [15] 0.031

Cc1cccc(CC(=O)N2CCc3c2ccc(-c2cn(C)c4ncnc(N)c24)c3F)n1
inactive: [1] -0.016 | [2] 0.033 | [3] -0.095 | [5] 0.055 | [6] 0.011 | [7] -0.005 | [16] 0.015 | [8] -0.089 | [10] 0.042 | [11] 0.043 | [12] -0.132 | [13] 0.009 | [14] -0.065 | [15] 0.034

CN1CCC(CNc2ccc3ncc(-c4cccc(OC(F)(F)F)c4)n3n2)CC1
inactive: [1] 0.019 | [2] -0.057 | [3] -0.002 | [5] 0.328 | [6] 0.072 | [7] 0.04 | [16] 0.016 | [8] -0.07 | [10] 0.191 | [11] -0.108 | [12] 0.008 | [13] -0.041 | [14] 0.01 | [15] -0.108

COc1cccc2cc(-c3nc([C@H]4CC[C@H](C(=O)O)CC4)n4ncnc(N)c34)[nH]c12
inactive: [1] -0.077 | [2] -0.183 | [3] 0.026 | [4] 0.402 | [5] 0.067 | [6] -0.11 | [7] -0.053 | [8] -0.012 | [9] 0.05 | [10] 0.053 | [11] -0.184 | [12] -0.068 | [13] -0.048 | [14] -0.01 | [15] -0.051

An excerpt from above in order of count of non-hydrogen atoms, low to high:
CN1CCC(CNc2ccc3ncc(-c4cccc(OC(F)(F)F)c4)n3n2)CC1
inactive: [1] 0.019 | [2] -0.057 | [3] -0.002 | [5] 0.328 | [6] 0.072 | [7] 0.04 | [16] 0.016 | [8] -0.07 | [10] 0.191 | [11] -0.108 | [12] 0.008 | [13] -0.041 | [14] 0.01 | [15] -0.108

COc1cccc2cc(-c3nc([C@H]4CC[C@H](C(=O)O)CC4)n4ncnc(N)c34)[nH]c12
inactive: [1] -0.077 | [2] -0.183 | [3] 0.026 | [4] 0.402 | [5] 0.067 | [6] -0.11 | [7] -0.053 | [8] -0.012 | [9] 0.05 | [10] 0.053 | [11] -0.184 | [12] -0.068 | [13] -0.048 | [14] -0.01 | [15] -0.051

COc1cc(Nc2ncc3c(n2)-c2ccc(Cl)cc2C(c2c(F)cccc2OC)=NC3)ccc1C(=O)O [alisertib]
inactive: [1] -0.02 | [2] -0.03 | [3] 0.027 | [4] -0.141 | [5] 0.374 | [6] -0.039 | [7] 0.008 | [8] -0.14 | [9] -0.323 | [10] -0.107 | [11] 0.069 | [12] 0.157 | [13] -0.02 | [14] -0.058 | [15] 0.031

Remaining list, next part:

O=C(O)c1ccc2c(c1)nc(Nc1cccc(Cl)c1)c1ccncc12 [silmitasertib]
inactive: [1] 0.067 | [2] 0.145 | [3] -0.004 | [4] 0.208 | [5] -0.021 | [6] 0.199 | [7] -0.016 | [8] -0.015 | [9] -0.207 | [10] 0.003 | [11] -0.009 | [12] -0.041 | [13] 0.01 | [14] 0.018 | [15] 0.083

CCCc1cc(C)[nH]c(=O)c1CNC(=O)c1cc(-c2ccnc(N3CCN(C)CC3)c2)cc2c1cnn2C(C)C
inactive: [1] 0.123 | [2] 0.37 | [3] -0.038 | [4] -0.132 | [5] 0.059 | [6] 0.257 | [7] -0.059 | [8] 0.028 | [9] 0.255 | [10] -0.073 | [11] 0.036 | [12] -0.07 | [13] 0.016 | [14] 0.028 | [15] 0.072

Cc1ccc(-n2nc(C(C)(C)C)cc2NC(=O)Nc2ccc(OCCN3CCOCC3)c3ccccc23)cc1 [doramapimod]
inactive: [1] 0.166 | [2] 0.377 | [3] -0.002 | [4] 0.232 | [7] 0.065 | [16] -0.052 | [8] 0.025 | [10] 0.03 | [11] -0.11 | [13] -0.034 | [14] -0.014 | [15] 0.048

Cc1ccc(NC(=O)c2cccc(C(C)(C)C#N)c2)cc1Nc1ccc2ncn(C)c(=O)c2c1
inactive: [1] -0.018 | [2] -0.148 | [3] -0.036 | [4] -0.112 | [5] -0.036 | [7] -0.016 | [16] -0.176 | [8] -0.002 | [9] 0.05 | [10] 0.001 | [12] 0.022 | [13] 0.021 | [14] 0.034 | [17] 0.008 | [18] 0.184 | [15] 0.015

CC[C@@H]1C(=O)N(C)c2cnc(Nc3ccc(C(=O)NC4CCN(C)CC4)cc3OC)nc2N1C1CCCC1
inactive: [1] 0.125 | [2] 0.135 | [3] 0.018 | [4] 0.179 | [5] -0.439 | [7] 0.034 | [8] 0.03 | [10] 0.018 | [11] 0 | [12] 0.036 | [13] -0.022 | [14] 0.022 | [17] -0.099 | [18] 0.104 | [15] -0.197

COC(=O)N[C@@H](C)CNc1nccc(-c2cn(C(C)C)nc2-c2cc(Cl)cc(NS(C)(=O)=O)c2F)n1 [encorafenib]
inactive: [1] 0.108 | [2] 0.242 | [3] -0.013 | [4] -0.11 | [5] -0.1 | [7] -0.003 | [8] -0.098 | [10] -0.018 | [11] 0.045 | [12] 0.028 | [13] 0.01 | [14] -0.066 | [17] 0.079 | [18] 0.006 | [15] 0.094

c1cc(OCCN2CCCCC2)cc(-c2n[nH]c3ccc(-c4nnc[nH]4)cc23)c1
inactive: [1] -0.247 | [2] -0.246 | [3] -0.007 | [4] -0.104 | [5] 0.1 | [7] -0.038 | [8] 0.036 | [10] -0.064 | [11] 0.054 | [12] 0.016 | [13] -0.025 | [14] 0.021 | [17] 0.075 | [18] -0.06 | [15] -0.016

C[C@@H](N)c1ccc(C(=O)Nc2ccnc3[nH]ccc23)cc1
inactive: [1] 0.088 | [2] 0.226 | [3] -0.048 | [7] -0.074 | [16] 0.012 | [8] 0.064 | [10] -0.061 | [11] 0.002 | [12] -0.001 | [13] -0.132 | [14] -0.043 | [19] 0.084 | [15] 0.129

CC[C@H](C)n1cc(C)c2c(C(=O)NCc3c(C)cc(C)[nH]c3=O)cc(-c3ccc(N4CCNCC4)nc3)cc21
inactive: [1] -0.006 | [2] 0.016 | [3] -0.02 | [5] -0.058 | [7] -0.062 | [16] -0.08 | [8] -0.046 | [10] -0.028 | [11] 0.103 | [12] 0.142 | [13] 0.033 | [14] 0 | [18] 0.124 | [15] 0.077

Cc1ncc(-c2ccnc(Nc3ccc(S(C)(=O)=O)cc3)n2)n1C(C)C
inactive: [1] -0.018 | [2] -0.155 | [3] -0.011 | [5] -0.061 | [7] -0.07 | [16] -0.071 | [8] -0.035 | [10] -0.019 | [11] -0.007 | [12] 0.074 | [13] 0.009 | [14] -0.027 | [18] -0.033 | [15] 0

O=C(Nc1cccc(Nc2ncc(Br)c(NCCc3cnc[nH]3)n2)c1)N1CCCC1
inactive: [1] -0.011 | [2] 0.031 | [3] -0.004 | [7] -0.058 | [16] -0.001 | [8] 0.015 | [9] -0.024 | [10] -0.024 | [11] -0.048 | [12] -0.213 | [13] -0.031 | [14] -0.007 | [17] 0.067 | [18] -0.215 | [15] -0.018

Cn1c2cc(S(C)=O)sc2c2cnn(Cc3cccc(N)c3)c(=O)c21 (stereo unspecified)
inactive: [1] 0.255 | [2] 0.323 | [3] -0.047 | [5] 0.152 | [7] -0.032 | [16] -0.13 | [8] 0.013 | [10] -0.059 | [11] -0.049 | [12] -0.062 | [13] -0.044 | [14] -0.006 | [15] 0.115

Cc1cc(SCc2sc(-c3ccc(C(F)(F)F)cc3)nc2C)ccc1OCC(=O)O
inactive: [1] -0.023 | [2] -0.095 | [3] -0.058 | [5] -0.029 | [7] -0.062 | [16] -0.11 | [8] -0.253 | [10] 0.023 | [11] -0.013 | [12] 0.015 | [13] 0.015 | [14] -0.086 | [15] 0.088

COc1cc2ncnc(Nc3ccc(F)c(Cl)c3)c2cc1OCCCN1CCOCC1 [gefitinib]
inactive: [1] -0.088 | [2] 0.177 | [3] 0.002 | [5] -0.026 | [7] -0.057 | [16] 0 | [8] 0.005 | [10] 0.014 | [11] -0.02 | [12] -0.028 | [13] 0.005 | [14] 0.034 | [18] -0.072 | [15] 0.135

Cc1cn(-c2cc(NC(=O)c3ccc(C)c(Nc4nccc(-c5cccnc5)n4)c3)cc(C(F)(F)F)c2)cn1 [nilotinib]
inactive: [1] 0.018 | [2] 0.02 | [3] 0.042 | [5] -0.072 | [7] -0.117 | [16] -0.128 | [8] -0.13 | [10] -0.019 | [11] 0.008 | [12] 0.072 | [13] -0.031 | [14] 0.052 | [18] 0.071 | [15] -0.088
